Data on 35 targets can be found in the supplement of paper PMC7666118.

The chains behind the UniProt entries cited, without tags or fusion partners. Where a name states a change or a piece, a line headed by the entry shows the natural chain unless it says otherwise.
UniProt P05386, whole entry: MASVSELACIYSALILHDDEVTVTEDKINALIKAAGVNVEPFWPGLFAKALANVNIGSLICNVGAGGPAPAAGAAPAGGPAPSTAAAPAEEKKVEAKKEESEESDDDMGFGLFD
UniProt Q16181: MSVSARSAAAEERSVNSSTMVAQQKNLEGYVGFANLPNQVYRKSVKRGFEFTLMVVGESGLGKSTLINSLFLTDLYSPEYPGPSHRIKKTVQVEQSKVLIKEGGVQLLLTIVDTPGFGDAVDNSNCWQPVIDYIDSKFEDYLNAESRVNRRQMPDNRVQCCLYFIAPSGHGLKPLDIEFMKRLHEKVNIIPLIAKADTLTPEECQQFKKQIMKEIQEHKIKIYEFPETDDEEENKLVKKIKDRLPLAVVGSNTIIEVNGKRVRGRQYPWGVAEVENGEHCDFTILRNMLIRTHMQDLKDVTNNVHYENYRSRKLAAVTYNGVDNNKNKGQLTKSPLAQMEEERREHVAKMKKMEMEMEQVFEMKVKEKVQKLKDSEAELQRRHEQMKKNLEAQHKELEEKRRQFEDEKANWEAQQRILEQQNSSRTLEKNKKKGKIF
UniProt Q14151: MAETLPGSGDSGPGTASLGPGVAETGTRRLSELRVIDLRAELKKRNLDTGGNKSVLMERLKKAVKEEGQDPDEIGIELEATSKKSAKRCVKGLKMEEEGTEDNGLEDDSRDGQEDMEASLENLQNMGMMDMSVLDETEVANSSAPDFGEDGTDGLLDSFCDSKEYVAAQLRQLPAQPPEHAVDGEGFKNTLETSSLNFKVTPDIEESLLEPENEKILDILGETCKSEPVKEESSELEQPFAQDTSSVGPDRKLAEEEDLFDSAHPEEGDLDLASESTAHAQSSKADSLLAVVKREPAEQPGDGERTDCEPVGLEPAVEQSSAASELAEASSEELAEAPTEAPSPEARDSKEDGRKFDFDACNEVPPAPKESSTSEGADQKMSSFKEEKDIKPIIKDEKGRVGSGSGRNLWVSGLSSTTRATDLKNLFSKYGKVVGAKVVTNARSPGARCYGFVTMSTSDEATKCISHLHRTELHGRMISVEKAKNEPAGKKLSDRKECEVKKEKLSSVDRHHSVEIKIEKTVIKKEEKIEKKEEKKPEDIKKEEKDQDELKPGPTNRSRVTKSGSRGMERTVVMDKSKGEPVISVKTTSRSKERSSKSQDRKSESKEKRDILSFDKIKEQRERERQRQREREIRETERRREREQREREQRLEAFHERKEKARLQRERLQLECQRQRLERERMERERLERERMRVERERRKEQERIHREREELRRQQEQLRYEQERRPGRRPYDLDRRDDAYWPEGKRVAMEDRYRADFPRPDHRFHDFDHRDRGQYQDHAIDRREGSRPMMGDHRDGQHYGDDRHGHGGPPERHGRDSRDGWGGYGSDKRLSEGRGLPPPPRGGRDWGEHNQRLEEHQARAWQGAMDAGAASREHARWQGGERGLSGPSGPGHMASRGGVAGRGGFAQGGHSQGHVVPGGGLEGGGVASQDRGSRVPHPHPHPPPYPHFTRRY
UniProt Q0VDG4: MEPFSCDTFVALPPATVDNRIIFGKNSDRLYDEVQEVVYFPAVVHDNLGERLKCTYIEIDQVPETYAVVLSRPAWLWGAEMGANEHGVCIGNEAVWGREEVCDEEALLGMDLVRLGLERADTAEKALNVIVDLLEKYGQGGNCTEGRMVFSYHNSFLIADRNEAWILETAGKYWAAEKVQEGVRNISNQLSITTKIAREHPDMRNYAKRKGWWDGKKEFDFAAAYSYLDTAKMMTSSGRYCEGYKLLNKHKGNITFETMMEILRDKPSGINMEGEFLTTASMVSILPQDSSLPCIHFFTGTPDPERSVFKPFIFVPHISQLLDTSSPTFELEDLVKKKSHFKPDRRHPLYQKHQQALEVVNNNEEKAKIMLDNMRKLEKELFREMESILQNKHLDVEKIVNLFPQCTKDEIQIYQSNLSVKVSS
UniProt P06702: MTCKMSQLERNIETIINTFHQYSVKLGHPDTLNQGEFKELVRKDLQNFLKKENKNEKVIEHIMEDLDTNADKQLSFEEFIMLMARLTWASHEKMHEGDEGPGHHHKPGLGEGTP
UniProt Q5T7V8: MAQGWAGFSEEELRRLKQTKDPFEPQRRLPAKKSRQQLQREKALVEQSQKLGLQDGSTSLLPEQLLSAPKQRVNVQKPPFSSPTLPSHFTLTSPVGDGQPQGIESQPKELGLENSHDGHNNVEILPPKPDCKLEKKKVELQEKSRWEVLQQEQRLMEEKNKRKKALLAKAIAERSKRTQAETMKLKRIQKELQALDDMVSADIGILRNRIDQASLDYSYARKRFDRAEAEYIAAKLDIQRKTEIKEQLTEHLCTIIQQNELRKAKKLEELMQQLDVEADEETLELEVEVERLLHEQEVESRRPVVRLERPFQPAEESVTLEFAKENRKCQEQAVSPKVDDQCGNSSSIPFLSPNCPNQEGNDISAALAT
UniProt Q9UBF6, whole entry: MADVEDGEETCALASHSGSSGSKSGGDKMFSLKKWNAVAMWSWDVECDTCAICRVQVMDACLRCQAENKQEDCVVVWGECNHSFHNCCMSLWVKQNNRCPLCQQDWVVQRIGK
UniProt P31040: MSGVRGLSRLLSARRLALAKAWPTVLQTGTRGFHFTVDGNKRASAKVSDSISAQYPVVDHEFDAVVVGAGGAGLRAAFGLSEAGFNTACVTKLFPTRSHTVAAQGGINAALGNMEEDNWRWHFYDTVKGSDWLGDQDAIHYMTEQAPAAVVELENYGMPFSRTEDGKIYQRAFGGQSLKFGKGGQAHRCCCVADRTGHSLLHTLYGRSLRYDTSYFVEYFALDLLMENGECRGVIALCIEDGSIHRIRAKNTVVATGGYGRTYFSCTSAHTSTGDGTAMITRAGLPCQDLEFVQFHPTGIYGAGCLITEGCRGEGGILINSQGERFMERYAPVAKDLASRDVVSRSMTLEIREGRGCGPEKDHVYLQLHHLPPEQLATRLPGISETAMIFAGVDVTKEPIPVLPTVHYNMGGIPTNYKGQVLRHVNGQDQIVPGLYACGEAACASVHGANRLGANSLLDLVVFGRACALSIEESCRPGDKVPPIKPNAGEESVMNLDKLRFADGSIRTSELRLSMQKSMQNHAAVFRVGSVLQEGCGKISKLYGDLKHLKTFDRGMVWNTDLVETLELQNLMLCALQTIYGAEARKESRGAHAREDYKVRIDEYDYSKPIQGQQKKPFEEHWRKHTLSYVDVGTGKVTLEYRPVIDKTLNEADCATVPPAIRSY
UniProt O75446: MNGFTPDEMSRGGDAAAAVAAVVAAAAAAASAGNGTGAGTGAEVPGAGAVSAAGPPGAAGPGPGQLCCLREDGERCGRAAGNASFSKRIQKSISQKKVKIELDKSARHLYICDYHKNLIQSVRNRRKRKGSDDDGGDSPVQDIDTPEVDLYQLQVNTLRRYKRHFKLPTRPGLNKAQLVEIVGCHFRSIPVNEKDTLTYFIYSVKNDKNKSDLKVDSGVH
UniProt Q7L4I2: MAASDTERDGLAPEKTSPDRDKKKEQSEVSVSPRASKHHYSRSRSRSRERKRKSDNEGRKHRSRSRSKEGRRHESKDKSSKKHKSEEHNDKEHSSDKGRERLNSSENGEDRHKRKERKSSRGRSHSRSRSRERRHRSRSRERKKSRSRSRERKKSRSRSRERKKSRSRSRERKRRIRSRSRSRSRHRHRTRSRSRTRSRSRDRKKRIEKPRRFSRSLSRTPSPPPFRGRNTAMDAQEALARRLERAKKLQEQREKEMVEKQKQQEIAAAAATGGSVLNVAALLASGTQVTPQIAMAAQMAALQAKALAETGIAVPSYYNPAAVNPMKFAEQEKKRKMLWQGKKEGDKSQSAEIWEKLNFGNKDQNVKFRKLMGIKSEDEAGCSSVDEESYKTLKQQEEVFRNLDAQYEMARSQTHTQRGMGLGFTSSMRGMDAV
UniProt Q9GZR1: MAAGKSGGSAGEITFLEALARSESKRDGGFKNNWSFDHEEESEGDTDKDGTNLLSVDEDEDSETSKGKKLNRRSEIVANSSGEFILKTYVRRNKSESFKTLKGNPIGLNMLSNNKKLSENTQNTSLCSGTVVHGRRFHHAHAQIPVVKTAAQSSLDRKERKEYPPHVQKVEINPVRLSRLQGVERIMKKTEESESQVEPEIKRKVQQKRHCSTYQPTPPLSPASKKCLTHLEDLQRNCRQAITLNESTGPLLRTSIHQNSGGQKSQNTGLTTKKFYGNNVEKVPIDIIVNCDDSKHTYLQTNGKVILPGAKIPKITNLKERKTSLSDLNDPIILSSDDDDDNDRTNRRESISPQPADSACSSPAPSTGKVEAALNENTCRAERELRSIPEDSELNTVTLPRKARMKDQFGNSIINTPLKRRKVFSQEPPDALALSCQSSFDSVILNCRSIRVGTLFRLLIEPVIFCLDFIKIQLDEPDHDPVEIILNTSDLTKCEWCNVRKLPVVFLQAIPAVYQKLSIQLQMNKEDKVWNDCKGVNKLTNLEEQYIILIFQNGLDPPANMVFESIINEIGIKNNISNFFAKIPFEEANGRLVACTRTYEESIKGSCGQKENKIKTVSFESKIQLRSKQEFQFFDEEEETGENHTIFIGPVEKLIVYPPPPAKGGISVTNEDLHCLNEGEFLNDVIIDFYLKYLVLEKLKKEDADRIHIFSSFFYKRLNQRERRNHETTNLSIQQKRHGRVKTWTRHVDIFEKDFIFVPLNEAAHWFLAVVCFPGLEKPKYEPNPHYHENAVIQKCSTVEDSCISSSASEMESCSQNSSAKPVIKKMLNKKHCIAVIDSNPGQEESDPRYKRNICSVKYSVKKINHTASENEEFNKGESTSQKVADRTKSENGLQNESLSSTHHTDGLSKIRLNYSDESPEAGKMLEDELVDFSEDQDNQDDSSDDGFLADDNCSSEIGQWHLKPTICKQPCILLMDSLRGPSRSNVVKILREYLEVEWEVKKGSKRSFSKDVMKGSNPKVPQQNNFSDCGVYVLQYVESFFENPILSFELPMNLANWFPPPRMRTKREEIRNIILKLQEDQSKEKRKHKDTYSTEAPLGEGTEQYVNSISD
UniProt Q9GZN7, whole entry: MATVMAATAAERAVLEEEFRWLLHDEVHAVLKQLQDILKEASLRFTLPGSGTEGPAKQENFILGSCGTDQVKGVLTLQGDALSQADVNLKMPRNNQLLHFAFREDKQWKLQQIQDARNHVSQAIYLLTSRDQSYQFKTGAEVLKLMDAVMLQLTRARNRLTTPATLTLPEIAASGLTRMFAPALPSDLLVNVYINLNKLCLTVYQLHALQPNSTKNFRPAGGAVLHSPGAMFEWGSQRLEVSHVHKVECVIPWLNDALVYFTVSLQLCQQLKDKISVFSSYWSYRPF
UniProt Q96DX4: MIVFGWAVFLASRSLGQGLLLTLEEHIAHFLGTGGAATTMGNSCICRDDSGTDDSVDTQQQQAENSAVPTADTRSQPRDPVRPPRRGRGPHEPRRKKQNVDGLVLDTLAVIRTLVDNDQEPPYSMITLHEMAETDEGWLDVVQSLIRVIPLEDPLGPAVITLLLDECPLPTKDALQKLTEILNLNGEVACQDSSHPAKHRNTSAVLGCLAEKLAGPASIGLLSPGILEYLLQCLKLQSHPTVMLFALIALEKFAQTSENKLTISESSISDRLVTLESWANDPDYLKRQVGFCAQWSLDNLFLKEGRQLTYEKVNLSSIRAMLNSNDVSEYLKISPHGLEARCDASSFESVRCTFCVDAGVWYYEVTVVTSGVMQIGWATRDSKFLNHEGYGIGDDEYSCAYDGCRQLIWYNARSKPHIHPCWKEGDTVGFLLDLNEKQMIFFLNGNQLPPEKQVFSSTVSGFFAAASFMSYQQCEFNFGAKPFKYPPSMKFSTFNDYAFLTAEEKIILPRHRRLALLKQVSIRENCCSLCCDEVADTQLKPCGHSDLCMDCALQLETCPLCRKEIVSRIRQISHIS
UniProt Q96NL6: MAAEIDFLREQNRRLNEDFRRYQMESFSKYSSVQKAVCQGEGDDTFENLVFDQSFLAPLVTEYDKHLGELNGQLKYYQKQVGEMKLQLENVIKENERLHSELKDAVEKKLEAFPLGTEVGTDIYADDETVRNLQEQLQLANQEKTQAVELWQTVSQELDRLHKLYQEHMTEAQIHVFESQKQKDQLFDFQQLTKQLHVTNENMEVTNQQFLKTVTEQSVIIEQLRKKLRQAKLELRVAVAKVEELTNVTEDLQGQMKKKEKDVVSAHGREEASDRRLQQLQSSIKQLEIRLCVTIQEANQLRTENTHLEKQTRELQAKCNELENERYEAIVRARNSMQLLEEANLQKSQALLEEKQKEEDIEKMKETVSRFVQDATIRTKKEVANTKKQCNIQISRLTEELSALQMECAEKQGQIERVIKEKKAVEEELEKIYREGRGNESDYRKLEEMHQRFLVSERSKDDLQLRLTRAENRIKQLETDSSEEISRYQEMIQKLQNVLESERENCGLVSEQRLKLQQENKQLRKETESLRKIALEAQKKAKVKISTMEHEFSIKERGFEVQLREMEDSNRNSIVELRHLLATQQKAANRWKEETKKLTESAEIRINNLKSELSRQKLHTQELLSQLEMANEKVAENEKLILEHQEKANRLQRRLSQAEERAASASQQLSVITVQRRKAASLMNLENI

This is one part of the list.

Compound in the experiment: COc1ccc(Cn2ccc3cc(C)c(C(=O)NO)cc32)cc1
In words: dose-dependent thermal stabilisation call (2D-TPP, DLPTP, 10% FDR) (binary (1 = stabilised)); higher = stabilised by the compound. The following applies: system: HL-60 intact cells; concentration range 0.04-10 µM. As to the method: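 2D thermal proteome profiling in intact HL-60 cells treated with BRD-3811 (0, 0.04, 0.29, 2, 10 uM) for 90 min at 37 C, then heated 3 min at one of 12 temperatures (42-63.9 C). Soluble protein was quantified by TMT10 MS. The value is the DLPTP call of the paper: dose-dependent thermal stabilisation over all temperatures at 10% FDR (F-test of a dose-response against a flat model); one experiment, one call per tested protein.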
RPL13 (UniProt P26373): the “dose-dependent thermal stabilisation call” value was active: 1.
On to RPLP1 (UniProt P05386), for which the “dose-dependent thermal stabilisation call” value is inactive: 0.
Take RPS11 (UniProt P62280): the “dose-dependent thermal stabilisation call” value is inactive: 0.
Then SAMHD1 (UniProt Q9Y3Z3), with inactive: 0.
Then SEPT7 (UniProt Q16181), with inactive: 0; and SAFB2 (UniProt Q14151), with inactive: 0; and SBNO1 (UniProt A3KN83), with inactive: 0.
Then SCRN3 (UniProt Q0VDG4), with inactive: 0; and SCRN2 (UniProt Q96FV2), with inactive: 0; and S100A9 (UniProt P06702), with inactive: 0.
As for RPS21 (UniProt P63220), the “dose-dependent thermal stabilisation call” value was inactive: 0.
Then SCYL1BP1 (UniProt Q5T7V8), with inactive: 0.
For RPL30 (UniProt P62888), the “dose-dependent thermal stabilisation call” value is inactive: 0.
The figure for RNF7 (UniProt Q9UBF6) is inactive: 0; for RPP14 (UniProt O95059) it is inactive: 0; for RPL35A (UniProt P18077) it is inactive: 0.
The figure for RPS29 (UniProt P62273) is inactive: 0.
Regarding SDHA (UniProt P31040), the “dose-dependent thermal stabilisation call” value is inactive: 0.
SEC16A (UniProt O15027): the “dose-dependent thermal stabilisation call” value was inactive: 0.
The figure for SAP30 (UniProt O75446) is inactive: 0; for RPL11 (UniProt P62913) it is inactive: 0; for RPS25 (UniProt P62851) it is inactive: 0.
For the target RSRC2 (UniProt Q7L4I2), the “dose-dependent thermal stabilisation call” value was inactive: 0.
Regarding RUNX1 (UniProt Q01196), the “dose-dependent thermal stabilisation call” value was inactive: 0.
Then RPL23 (UniProt P62829), with inactive: 0; and RPS4X (UniProt P62701), with inactive: 0; and SC5DL (UniProt O75845), with inactive: 0.
SEPHS1 (UniProt P49903): the “dose-dependent thermal stabilisation call” value is inactive: 0.
Then SENP6 (UniProt Q9GZR1), with inactive: 0; and ROGDI (UniProt Q9GZN7), with inactive: 0.
Then RPUSD4 (UniProt Q96CM3), with inactive: 0; and RSPRY1 (UniProt Q96DX4), with inactive: 0; and RPL10A (UniProt P62906), with inactive: 0.
As to SDCCAG10 (UniProt Q6UX04), the “dose-dependent thermal stabilisation call” value was inactive: 0.
The figure for SCLT1 (UniProt Q96NL6) is inactive: 0.
